Measured values as given in doi:10.1101/2025.05.27.656397, “A new heme enzyme family forms hydrazine groups in diverse biosynthetic pathways” (bioRxiv, 2025).

What was measured:
[1] = biological target: T1, N-terminally His6-tagged KinI (ferredoxin) (S. murayamaensis); experiment: pull-down; proteins co-expressed in E. coli, His6 tag on one partner at the N- or C-terminus, expressed aerobically, purified anaerobically; partner found in the affinity-purified material
T1 sequence: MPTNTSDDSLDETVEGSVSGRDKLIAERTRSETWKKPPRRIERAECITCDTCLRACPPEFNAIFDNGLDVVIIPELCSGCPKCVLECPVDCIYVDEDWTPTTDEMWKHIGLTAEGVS

[2] = biological target: T1, N-terminally His6-tagged KinI (ferredoxin) (S. murayamaensis); experiment: SEC; anaerobic size exclusion chromatography of proteins expressed alone or co-expressed and purified; both purified

FzmP, co-expressed with KinI (enzyme) was tested, and the binding [1] was “binds” and the binding [2] was “binds”.

These are yes or no findings as the source states them, for the method shown. Binding calls can cover weak binding; strength is not graded here. Tags and fused reporters may be left off the sequences shown. For some assays here: Binding seen in cells or lysates may run through a third protein.
